According to paper PMC3931654:

Biological target: T1, Themis (thymocyte-expressed molecule involved in selection), endogenous wild type (mouse (endogenous in thymocytes)) (UniProt Q8BGW0)
T1 sequence: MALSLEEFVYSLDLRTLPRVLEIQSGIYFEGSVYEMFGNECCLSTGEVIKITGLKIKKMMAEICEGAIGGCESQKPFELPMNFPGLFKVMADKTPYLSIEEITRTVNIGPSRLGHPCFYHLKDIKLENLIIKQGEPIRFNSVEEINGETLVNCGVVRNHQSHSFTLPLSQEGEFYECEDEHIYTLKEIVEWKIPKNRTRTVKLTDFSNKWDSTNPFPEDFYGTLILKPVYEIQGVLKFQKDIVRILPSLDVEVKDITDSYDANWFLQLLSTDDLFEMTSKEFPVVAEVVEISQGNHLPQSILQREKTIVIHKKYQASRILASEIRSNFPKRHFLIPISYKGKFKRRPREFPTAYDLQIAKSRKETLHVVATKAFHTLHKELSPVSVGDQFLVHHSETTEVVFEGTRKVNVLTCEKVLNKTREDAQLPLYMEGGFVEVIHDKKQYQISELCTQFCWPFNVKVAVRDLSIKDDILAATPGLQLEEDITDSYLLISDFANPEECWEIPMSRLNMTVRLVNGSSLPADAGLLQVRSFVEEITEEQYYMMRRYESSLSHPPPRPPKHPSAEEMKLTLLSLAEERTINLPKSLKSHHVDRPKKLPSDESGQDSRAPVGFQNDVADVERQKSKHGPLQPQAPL
Assay: co-IP; mouse thymocytes, unstimulated or stimulated with anti-CD3 plus anti-CD4 (Fig. S3: also anti-CD8) antibodies; lysis buffer 50 mM Tris-HCl pH 7.5, 150 mM NaCl, 10 mM MgCl2, 0.5% Nonidet P-40; immunoprecipitated with anti-Themis antibody on protein G-sepharose, immunoblot

binding: binds
Substance: SOS (mouse (endogenous in thymocytes))

Results are given in words; binding and its absence hold for the method and conditions named. In cells and extracts the contact can be indirect. A result given as binding can be weak or reduced; the word gives no strength.
